Measurements as given in PMC8169119.
Numbering of substitutions follows the chain as printed. Numbers in names are those of the source. Results are given in words; binding and its absence hold for the method and conditions named. Binding seen in cells or lysates may run through a third protein. Some binding calls cover weakened binding; strength is not graded here. Where a sequence is shown, tags or fusion partners need not be part of it. One block for each binder: values may come before it.

Target: T1, wild-type bestrophin-1 (BEST1), BEST1-CFP-Myc (human) (UniProt O76090)
T1 sequence: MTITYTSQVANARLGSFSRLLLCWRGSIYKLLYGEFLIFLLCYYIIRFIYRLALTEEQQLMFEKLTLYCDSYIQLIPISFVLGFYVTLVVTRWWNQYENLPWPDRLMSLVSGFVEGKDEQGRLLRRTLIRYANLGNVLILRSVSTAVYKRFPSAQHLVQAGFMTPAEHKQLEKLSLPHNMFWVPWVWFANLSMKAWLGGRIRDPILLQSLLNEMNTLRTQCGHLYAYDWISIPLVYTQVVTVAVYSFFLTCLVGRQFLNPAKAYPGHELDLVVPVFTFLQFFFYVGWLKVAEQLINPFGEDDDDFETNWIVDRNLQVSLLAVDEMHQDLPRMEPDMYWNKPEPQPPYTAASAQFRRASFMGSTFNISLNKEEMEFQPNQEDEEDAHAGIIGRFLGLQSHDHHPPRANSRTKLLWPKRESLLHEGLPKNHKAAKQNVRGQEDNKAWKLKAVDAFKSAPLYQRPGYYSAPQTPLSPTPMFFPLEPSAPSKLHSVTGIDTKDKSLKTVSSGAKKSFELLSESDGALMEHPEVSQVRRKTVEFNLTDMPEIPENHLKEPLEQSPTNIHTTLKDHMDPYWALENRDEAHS
Assay: co-IP; HEK293 cells co-transfected 1:1 with BEST1(WT)-CFP-Myc and BEST1(mutant or WT)-YFP-His; lysis in 150 mM NaCl, 50 mM Tris, 0.5% IGEPAL CA-630, pH 7.4; precipitated with Myc monoclonal antibody and Dynabeads anti-mouse IgG at 4°C; immunoblotted for His and Myc

binding: binds
B1: wild-type bestrophin-1 (BEST1), BEST1-CFP-Myc (protein, UniProt O76090 1-585)
chain: T1 sequence

binding: binds
B2: BEST1 I205T-YFP-His (protein, UniProt O76090 1-585)
chain: T1 sequence with I205T

binding: binds
B3: BEST1 Y236C-YFP-His (protein, UniProt O76090 1-585)
chain: T1 sequence with Y236C

binding: binds
B4: BEST1 D203A-YFP-His (protein, UniProt O76090 1-585)
chain: T1 sequence with D203A
